Reference: the supplement of paper PMC12823440, “Inhibitors supercharge kinase turnover through native proteolytic circuits” (Nature, 2025)
The other results are listed elsewhere or left out. Hit calls seldom repeat between salt and free forms of one compound.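 Kinases were expressed as nanoluciferase fusions in K562 cells and luminescence was read every 4 h between 2 and 18 h as percent of control, DMSO set to 100% and a positive control to 0%. A time point counts as decreased when the signal drops significantly (2 sigma). The hit call is the authors' own, does not follow from the count of time points alone, and its rule is not shown.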

Chains of the proteins cited; added tags and fusions are not shown. Lines headed by an entry give the natural chain unless they say otherwise; changes in a name come on top.
UniProt P06239: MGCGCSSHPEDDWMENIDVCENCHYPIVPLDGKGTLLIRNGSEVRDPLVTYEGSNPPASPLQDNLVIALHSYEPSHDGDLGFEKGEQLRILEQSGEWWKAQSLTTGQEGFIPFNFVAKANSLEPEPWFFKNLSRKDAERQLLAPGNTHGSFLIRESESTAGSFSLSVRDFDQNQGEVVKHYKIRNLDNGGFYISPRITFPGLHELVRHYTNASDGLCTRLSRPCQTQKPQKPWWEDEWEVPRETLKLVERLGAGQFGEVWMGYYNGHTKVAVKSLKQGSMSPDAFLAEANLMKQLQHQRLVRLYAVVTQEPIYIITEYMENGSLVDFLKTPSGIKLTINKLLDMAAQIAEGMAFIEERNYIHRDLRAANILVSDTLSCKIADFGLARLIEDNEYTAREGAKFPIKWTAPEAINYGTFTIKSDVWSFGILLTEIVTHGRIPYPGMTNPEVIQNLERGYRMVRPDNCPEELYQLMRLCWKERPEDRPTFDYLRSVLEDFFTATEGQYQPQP
UniProt P53667: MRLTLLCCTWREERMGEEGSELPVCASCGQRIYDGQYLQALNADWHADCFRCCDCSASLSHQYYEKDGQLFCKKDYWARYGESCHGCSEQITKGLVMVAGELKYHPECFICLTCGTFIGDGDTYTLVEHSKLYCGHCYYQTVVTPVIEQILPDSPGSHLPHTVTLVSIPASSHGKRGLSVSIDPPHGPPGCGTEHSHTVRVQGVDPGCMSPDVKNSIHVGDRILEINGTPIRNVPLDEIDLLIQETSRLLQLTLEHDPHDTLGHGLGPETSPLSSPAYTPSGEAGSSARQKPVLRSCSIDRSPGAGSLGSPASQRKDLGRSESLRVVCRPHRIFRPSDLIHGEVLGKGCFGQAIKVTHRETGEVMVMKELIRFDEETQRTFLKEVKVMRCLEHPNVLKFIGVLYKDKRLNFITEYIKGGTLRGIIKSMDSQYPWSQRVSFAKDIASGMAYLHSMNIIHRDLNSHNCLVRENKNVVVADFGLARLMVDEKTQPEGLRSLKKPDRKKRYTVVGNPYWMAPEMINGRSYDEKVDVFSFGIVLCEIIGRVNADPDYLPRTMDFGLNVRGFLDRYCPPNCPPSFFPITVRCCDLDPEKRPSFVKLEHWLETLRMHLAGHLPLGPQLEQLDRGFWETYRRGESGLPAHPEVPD
UniProt P53671: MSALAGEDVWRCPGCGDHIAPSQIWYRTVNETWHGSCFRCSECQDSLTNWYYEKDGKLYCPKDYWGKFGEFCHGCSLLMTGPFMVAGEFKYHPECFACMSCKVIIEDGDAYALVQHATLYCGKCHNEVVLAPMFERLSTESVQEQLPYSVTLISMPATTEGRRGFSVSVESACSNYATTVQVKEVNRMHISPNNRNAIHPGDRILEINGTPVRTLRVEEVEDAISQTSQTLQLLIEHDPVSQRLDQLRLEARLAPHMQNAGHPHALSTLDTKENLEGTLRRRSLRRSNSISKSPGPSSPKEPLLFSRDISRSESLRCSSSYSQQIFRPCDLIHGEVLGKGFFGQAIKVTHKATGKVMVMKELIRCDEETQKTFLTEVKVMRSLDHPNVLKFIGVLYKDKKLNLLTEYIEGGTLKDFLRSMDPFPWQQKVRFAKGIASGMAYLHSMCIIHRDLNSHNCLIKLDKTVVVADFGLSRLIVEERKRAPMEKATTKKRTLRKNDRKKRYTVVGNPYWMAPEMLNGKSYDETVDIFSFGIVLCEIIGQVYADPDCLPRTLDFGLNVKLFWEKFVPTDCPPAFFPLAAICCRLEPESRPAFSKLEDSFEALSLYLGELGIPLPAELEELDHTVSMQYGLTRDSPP
UniProt Q8IWU2: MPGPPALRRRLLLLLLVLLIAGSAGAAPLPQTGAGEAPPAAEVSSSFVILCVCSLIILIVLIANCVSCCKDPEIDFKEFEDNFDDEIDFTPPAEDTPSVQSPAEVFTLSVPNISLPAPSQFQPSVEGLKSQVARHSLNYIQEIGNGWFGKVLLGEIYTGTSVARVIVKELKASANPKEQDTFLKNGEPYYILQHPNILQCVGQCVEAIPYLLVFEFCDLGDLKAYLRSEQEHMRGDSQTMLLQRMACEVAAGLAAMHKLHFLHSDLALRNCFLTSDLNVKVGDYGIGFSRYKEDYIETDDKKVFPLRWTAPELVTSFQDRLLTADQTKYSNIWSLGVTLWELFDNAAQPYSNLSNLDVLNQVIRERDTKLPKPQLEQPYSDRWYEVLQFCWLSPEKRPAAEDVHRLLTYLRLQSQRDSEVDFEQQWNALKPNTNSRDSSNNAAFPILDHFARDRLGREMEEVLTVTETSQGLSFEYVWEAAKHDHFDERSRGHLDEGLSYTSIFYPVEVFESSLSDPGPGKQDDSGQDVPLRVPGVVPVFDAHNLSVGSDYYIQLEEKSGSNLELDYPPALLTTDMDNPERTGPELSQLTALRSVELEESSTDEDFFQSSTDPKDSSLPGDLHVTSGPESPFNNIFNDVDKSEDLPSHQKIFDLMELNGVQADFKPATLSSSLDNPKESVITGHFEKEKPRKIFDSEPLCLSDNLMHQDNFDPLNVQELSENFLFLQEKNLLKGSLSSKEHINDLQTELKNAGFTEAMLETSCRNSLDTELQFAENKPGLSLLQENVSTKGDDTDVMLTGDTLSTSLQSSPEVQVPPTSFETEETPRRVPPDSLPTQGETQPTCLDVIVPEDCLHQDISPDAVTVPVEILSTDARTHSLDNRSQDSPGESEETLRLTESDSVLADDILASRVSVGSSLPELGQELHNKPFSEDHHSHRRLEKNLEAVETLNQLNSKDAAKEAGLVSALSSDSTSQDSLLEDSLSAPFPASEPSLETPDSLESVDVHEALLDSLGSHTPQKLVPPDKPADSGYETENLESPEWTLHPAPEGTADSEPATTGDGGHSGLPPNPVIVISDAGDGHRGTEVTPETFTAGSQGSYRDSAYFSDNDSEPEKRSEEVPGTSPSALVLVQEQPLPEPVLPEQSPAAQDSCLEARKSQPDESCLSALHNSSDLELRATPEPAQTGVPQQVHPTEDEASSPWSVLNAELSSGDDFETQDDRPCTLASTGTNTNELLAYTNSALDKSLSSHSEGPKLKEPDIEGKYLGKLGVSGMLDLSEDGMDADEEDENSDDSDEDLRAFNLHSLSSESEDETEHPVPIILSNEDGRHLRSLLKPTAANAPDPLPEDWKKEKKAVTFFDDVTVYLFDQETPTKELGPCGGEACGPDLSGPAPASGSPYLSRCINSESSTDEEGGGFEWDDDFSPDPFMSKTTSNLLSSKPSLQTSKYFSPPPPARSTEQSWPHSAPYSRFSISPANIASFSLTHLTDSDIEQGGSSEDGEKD
UniProt P07948: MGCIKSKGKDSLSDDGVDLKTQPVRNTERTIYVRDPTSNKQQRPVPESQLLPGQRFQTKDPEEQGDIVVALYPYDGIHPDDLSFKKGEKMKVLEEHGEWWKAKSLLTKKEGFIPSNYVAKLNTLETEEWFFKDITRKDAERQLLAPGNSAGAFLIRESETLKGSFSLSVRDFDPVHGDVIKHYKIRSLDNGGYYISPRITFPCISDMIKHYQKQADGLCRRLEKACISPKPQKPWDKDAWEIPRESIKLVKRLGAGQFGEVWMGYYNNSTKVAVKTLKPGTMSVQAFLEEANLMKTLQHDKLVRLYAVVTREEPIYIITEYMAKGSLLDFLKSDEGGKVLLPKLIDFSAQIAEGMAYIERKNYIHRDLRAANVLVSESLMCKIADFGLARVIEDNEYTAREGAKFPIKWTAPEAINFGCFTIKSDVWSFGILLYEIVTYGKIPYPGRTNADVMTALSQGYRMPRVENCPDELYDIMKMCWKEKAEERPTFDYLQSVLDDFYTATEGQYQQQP
UniProt P28482, whole entry: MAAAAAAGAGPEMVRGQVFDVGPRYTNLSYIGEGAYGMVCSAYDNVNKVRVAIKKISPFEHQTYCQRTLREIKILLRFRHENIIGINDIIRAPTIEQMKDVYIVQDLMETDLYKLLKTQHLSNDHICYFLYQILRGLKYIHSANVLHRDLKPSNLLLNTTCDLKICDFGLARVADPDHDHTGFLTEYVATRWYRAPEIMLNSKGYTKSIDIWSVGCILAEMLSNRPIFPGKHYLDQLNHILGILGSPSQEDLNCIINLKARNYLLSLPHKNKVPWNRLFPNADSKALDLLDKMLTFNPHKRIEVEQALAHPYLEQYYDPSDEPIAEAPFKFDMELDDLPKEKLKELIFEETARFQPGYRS
UniProt P49137, whole entry, looked up: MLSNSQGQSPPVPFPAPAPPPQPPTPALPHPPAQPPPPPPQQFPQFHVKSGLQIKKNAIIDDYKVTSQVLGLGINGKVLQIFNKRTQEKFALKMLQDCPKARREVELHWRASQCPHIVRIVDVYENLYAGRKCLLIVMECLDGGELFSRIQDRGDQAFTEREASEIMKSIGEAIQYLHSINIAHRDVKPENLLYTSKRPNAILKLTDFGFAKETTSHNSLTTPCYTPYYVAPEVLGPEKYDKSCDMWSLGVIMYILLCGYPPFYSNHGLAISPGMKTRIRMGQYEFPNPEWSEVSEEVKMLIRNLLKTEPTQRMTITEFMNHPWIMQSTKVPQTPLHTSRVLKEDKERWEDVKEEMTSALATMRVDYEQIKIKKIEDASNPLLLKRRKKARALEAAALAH
UniProt Q16620, whole entry, looked up: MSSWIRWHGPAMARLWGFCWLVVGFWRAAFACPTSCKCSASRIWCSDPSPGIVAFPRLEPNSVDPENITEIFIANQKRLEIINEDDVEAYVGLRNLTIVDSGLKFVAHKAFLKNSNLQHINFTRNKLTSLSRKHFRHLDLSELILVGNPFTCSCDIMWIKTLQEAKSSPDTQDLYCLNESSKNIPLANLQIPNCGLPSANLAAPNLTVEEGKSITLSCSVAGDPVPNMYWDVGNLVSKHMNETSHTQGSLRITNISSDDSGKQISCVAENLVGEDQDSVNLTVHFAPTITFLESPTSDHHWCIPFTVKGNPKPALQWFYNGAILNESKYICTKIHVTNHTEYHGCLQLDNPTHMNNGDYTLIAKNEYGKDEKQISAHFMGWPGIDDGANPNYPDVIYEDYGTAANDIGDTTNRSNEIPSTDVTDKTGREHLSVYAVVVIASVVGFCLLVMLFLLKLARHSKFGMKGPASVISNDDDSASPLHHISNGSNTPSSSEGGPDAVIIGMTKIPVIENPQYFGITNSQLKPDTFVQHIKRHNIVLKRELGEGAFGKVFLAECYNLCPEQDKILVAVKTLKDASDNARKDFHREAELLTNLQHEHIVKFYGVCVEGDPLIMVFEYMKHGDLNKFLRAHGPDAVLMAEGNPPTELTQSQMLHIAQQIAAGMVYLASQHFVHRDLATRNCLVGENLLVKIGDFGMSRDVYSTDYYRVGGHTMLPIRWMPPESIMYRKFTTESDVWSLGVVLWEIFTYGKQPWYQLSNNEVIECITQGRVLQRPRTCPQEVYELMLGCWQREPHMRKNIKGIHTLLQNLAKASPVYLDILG
UniProt O96013: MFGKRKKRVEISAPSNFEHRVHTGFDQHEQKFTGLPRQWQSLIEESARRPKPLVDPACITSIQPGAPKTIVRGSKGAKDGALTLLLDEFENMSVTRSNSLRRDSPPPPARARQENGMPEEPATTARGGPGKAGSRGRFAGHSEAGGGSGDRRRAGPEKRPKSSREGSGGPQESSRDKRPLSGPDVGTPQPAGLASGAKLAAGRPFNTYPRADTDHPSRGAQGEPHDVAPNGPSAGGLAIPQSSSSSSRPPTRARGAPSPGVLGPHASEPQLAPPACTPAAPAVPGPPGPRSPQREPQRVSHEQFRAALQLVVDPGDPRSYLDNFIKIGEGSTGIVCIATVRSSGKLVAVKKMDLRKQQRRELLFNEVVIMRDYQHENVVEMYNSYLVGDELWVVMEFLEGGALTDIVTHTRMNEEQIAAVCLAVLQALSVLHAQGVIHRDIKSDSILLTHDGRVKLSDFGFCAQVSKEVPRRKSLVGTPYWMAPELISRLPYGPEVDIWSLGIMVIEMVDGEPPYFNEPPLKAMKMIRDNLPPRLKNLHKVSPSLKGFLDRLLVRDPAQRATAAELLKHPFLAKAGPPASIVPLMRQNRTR
UniProt Q15118, whole entry, looked up: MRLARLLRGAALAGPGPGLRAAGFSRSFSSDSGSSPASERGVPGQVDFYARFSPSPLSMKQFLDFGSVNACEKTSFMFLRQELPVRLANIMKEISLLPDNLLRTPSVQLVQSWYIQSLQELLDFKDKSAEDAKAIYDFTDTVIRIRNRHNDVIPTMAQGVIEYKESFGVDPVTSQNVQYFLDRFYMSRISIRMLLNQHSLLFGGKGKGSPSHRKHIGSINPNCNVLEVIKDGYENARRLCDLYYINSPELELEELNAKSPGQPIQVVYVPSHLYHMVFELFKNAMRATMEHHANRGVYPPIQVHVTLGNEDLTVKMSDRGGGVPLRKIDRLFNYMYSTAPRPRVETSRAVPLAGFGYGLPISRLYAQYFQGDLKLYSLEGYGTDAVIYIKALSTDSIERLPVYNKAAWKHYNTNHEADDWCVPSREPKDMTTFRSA

Key:
Assay in all cases: kinase-Nluc reporter destabilization hit call (1 = scored as downregulated) (binary); higher = compound decreases kinase abundance
Details in all cases: K562; 2-18 h
[1] = target: IRAK3 (UniProt Q9Y616)
[2] = target: JAK1 (UniProt P23458)
[3] = target: LCK (UniProt P06239)
[4] = target: LIMK1 (UniProt P53667)
[5] = target: LIMK2 (UniProt P53671)
[6] = target: LMTK2 (UniProt Q8IWU2)
[7] = target: LYN (UniProt P07948)
[8] = target: MAP2K1 (UniProt Q02750)
[9] = target: MAP2K2 (UniProt P36507)
[10] = target: MAP4K2 (UniProt Q12851)
[11] = target: MAPK1 (UniProt P28482)
[12] = target: MAPK4 (UniProt P31152)
[13] = target: MAPKAPK2 (UniProt P49137)
[14] = target: MKNK1 (UniProt Q9BUB5)
[15] = target: NTRK2 (UniProt Q16620)
[16] = target: NTRK3 (UniProt Q16288)
[17] = target: PAK4 (UniProt O96013)
[18] = target: PBK (UniProt Q96KB5)
[19] = target: PDGFRB (UniProt P09619)
[20] = target: PDK1 (UniProt Q15118)

| Structure (SMILES) | kinase-Nluc reporter destabilization hit call [1] | kinase-Nluc reporter destabilization hit call [2] | kinase-Nluc reporter destabilization hit call [3] | kinase-Nluc reporter destabilization hit call [4] | kinase-Nluc reporter destabilization hit call [5] | kinase-Nluc reporter destabilization hit call [6] | kinase-Nluc reporter destabilization hit call [7] | kinase-Nluc reporter destabilization hit call [8] | kinase-Nluc reporter destabilization hit call [9] | kinase-Nluc reporter destabilization hit call [10] | kinase-Nluc reporter destabilization hit call [11] | kinase-Nluc reporter destabilization hit call [12] | kinase-Nluc reporter destabilization hit call [13] | kinase-Nluc reporter destabilization hit call [14] | kinase-Nluc reporter destabilization hit call [15] | kinase-Nluc reporter destabilization hit call [16] | kinase-Nluc reporter destabilization hit call [17] | kinase-Nluc reporter destabilization hit call [18] | kinase-Nluc reporter destabilization hit call [19] | kinase-Nluc reporter destabilization hit call [20] |
| --- | --- | --- | --- | --- | --- | --- | --- | --- | --- | --- | --- | --- | --- | --- | --- | --- | --- | --- | --- | --- |
| N#CC(C#N)=Cc1ccc([N+](=O)[O-])c(O)c1 (10 µM) | inactive: 0 | inactive: 0 | inactive: 0 | inactive: 0 | inactive: 0 | inactive: 0 | inactive: 0 | inactive: 0 | inactive: 0 | inactive: 0 | inactive: 0 | inactive: 0 | inactive: 0 | inactive: 0 | inactive: 0 | inactive: 0 | inactive: 0 | inactive: 0 | inactive: 0 | inactive: 0 |
| NCCc1cn(S(=O)(=O)c2c(Cl)nc3sccn23)c2ccccc12 (10 µM) | inactive: 0 | inactive: 0 | inactive: 0 | inactive: 0 | inactive: 0 | inactive: 0 | inactive: 0 | inactive: 0 | inactive: 0 | inactive: 0 | inactive: 0 | inactive: 0 | inactive: 0 | inactive: 0 | inactive: 0 | inactive: 0 | inactive: 0 | inactive: 0 | inactive: 0 | inactive: 0 |
| O=c1[nH]c2ccccc2n1C1CCN(CCCC(c2ccc(F)cc2)c2ccc(F)cc2)CC1 [Pimozide] (2.5 µM) | inactive: 0 | inactive: 0 | inactive: 0 | inactive: 0 | inactive: 0 | inactive: 0 | inactive: 0 | inactive: 0 | inactive: 0 | inactive: 0 | inactive: 0 | inactive: 0 | inactive: 0 | inactive: 0 | inactive: 0 | inactive: 0 | inactive: 0 | inactive: 0 | inactive: 0 | inactive: 0 |
| C[C@H]1CC[C@]2(NC1)O[C@H]1C[C@H]3[C@@H]4CC[C@H]5C[C@@H](O[C@@H]6O[C@H](CO)[C@H](O[C@@H]7O[C@H](CO)[C@@H](O)[C@H](O[C@@H]8OC[C@@H](O)[C@H](O)[C@H]8O)[C@H]7O[C@@H]7O[C@H](CO)[C@@H](O)[C@H](O)[C@H]7O)[C@H](O)[C@H]6O)CC[C@]5(C)[C@H]4CC[C@]3(C)[C@H]1[C@@H]2C [Tomatine] (2.5 µM) | inactive: 0 | inactive: 0 | inactive: 0 | inactive: 0 | active: 1 | inactive: 0 | inactive: 0 | inactive: 0 | inactive: 0 | inactive: 0 | inactive: 0 | inactive: 0 | inactive: 0 | inactive: 0 | inactive: 0 | active: 1 | inactive: 0 | inactive: 0 | inactive: 0 | inactive: 0 |
| O=c1[nH]c2ccccc2n1C1CCN(Cc2ccc(-c3[nH]c4cc5ncnc5cc4nc3-c3ccccc3)cc2)CC1 [AKT inhibitor VIII] (2.5 µM) | inactive: 0 | inactive: 0 | inactive: 0 | inactive: 0 | inactive: 0 | inactive: 0 | inactive: 0 | inactive: 0 | inactive: 0 | inactive: 0 | inactive: 0 | inactive: 0 | inactive: 0 | inactive: 0 | inactive: 0 | inactive: 0 | inactive: 0 | inactive: 0 | inactive: 0 | inactive: 0 |
| COc1cc2c(cc1F)C(c1ccccc1Cl)=Nc1c(n[nH]c1C)N2 (0.5 µM) | inactive: 0 | inactive: 0 | inactive: 0 | inactive: 0 | inactive: 0 | inactive: 0 | inactive: 0 | inactive: 0 | inactive: 0 | inactive: 0 | inactive: 0 | inactive: 0 | inactive: 0 | inactive: 0 | inactive: 0 | inactive: 0 | inactive: 0 | inactive: 0 | inactive: 0 | inactive: 0 |
| CC(C)=CC[C@@H](OC(=O)CC(C)(C)O)C1=CC(=O)c2c(O)ccc(O)c2C1=O [β-Hydroxyisovalerylshikonin] (2.5 µM) | inactive: 0 | inactive: 0 | inactive: 0 | inactive: 0 | inactive: 0 | inactive: 0 | inactive: 0 | inactive: 0 | inactive: 0 | inactive: 0 | inactive: 0 | inactive: 0 | inactive: 0 | inactive: 0 | inactive: 0 | inactive: 0 | inactive: 0 | inactive: 0 | inactive: 0 | inactive: 0 |
| CCCCNc1nc(N)c2[nH]c(=O)n(Cc3ccc(C)nc3)c2n1 (10 µM) | inactive: 0 | inactive: 0 | inactive: 0 | inactive: 0 | inactive: 0 | inactive: 0 | inactive: 0 | inactive: 0 | inactive: 0 | inactive: 0 | inactive: 0 | inactive: 0 | inactive: 0 | inactive: 0 | inactive: 0 | inactive: 0 | inactive: 0 | inactive: 0 | inactive: 0 | inactive: 0 |
| O=C(O)c1nn(Cc2ccc(Cl)cc2Cl)c2ccccc12 [Lonidamine] (10 µM) | inactive: 0 | inactive: 0 | inactive: 0 | inactive: 0 | inactive: 0 | inactive: 0 | inactive: 0 | inactive: 0 | inactive: 0 | inactive: 0 | inactive: 0 | inactive: 0 | inactive: 0 | inactive: 0 | inactive: 0 | inactive: 0 | inactive: 0 | inactive: 0 | inactive: 0 | inactive: 0 |
| O=Cc1cn(Cc2ccc(Cl)cc2)c2ccccc12 [Oncrasin-1] (10 µM) | inactive: 0 | inactive: 0 | inactive: 0 | inactive: 0 | inactive: 0 | inactive: 0 | inactive: 0 | inactive: 0 | inactive: 0 | inactive: 0 | inactive: 0 | inactive: 0 | inactive: 0 | inactive: 0 | inactive: 0 | inactive: 0 | inactive: 0 | inactive: 0 | inactive: 0 | inactive: 0 |
| O=c1ccc2cc(O[C@@H]3O[C@H](CO)[C@@H](O)[C@H](O)[C@H]3O)c(O)cc2o1 [Esculin] (10 µM) | inactive: 0 | inactive: 0 | inactive: 0 | inactive: 0 | inactive: 0 | inactive: 0 | inactive: 0 | inactive: 0 | inactive: 0 | inactive: 0 | inactive: 0 | inactive: 0 | inactive: 0 | inactive: 0 | inactive: 0 | inactive: 0 | inactive: 0 | inactive: 0 | inactive: 0 | inactive: 0 |
| Cn1cc(C2=C(c3cn(C4CCN(Cc5ccccn5)CC4)c4ccccc34)C(=O)NC2=O)c2ccccc21 [Enzastaurin] (10 µM) | inactive: 0 | inactive: 0 | inactive: 0 | inactive: 0 | inactive: 0 | inactive: 0 | inactive: 0 | inactive: 0 | inactive: 0 | inactive: 0 | inactive: 0 | inactive: 0 | inactive: 0 | inactive: 0 | inactive: 0 | inactive: 0 | inactive: 0 | inactive: 0 | inactive: 0 | inactive: 0 |
| CCOC(=O)c1c(/C(C#N)=C\N)c2ccc(Cl)c(Cl)c2n1C (10 µM) | inactive: 0 | inactive: 0 | inactive: 0 | inactive: 0 | inactive: 0 | inactive: 0 | inactive: 0 | inactive: 0 | inactive: 0 | inactive: 0 | inactive: 0 | inactive: 0 | inactive: 0 | inactive: 0 | inactive: 0 | inactive: 0 | inactive: 0 | inactive: 0 | inactive: 0 | inactive: 0 |
| COc1ccc2c(c1OC)C(OC)N(C)c1c-2ccc2cc3c(cc12)OCO3 (stereo not given) [Angoline] (10 µM) | inactive: 0 | inactive: 0 | inactive: 0 | inactive: 0 | inactive: 0 | inactive: 0 | inactive: 0 | inactive: 0 | inactive: 0 | inactive: 0 | inactive: 0 | inactive: 0 | inactive: 0 | inactive: 0 | inactive: 0 | inactive: 0 | inactive: 0 | inactive: 0 | inactive: 0 | inactive: 0 |
| O=C1C=CC[C@@H]2[C@H]3CCCN4CCC[C@@H](CN12)[C@@H]34 [Sophocarpine] (10 µM) | inactive: 0 | inactive: 0 | inactive: 0 | inactive: 0 | inactive: 0 | inactive: 0 | inactive: 0 | inactive: 0 | inactive: 0 | inactive: 0 | inactive: 0 | inactive: 0 | inactive: 0 | inactive: 0 | inactive: 0 | inactive: 0 | inactive: 0 | inactive: 0 | inactive: 0 | inactive: 0 |
| COc1ccc(N(C(=O)Oc2c(C)cccc2C)c2ccnc(Nc3ccc(N4CCN(C)CC4)cc3)n2)c(OC)c1 (2.5 µM) | inactive: 0 | inactive: 0 | inactive: 0 | inactive: 0 | inactive: 0 | inactive: 0 | inactive: 0 | inactive: 0 | inactive: 0 | inactive: 0 | inactive: 0 | inactive: 0 | inactive: 0 | inactive: 0 | inactive: 0 | inactive: 0 | inactive: 0 | inactive: 0 | inactive: 0 | inactive: 0 |
| Cc1n[nH]cc1-c1cc2nc([C@@H]3CC4CCN3CC4)[nH]c(=O)c2s1 [Simurosertib] (2.5 µM) | inactive: 0 | inactive: 0 | inactive: 0 | inactive: 0 | inactive: 0 | inactive: 0 | inactive: 0 | inactive: 0 | inactive: 0 | inactive: 0 | inactive: 0 | inactive: 0 | inactive: 0 | inactive: 0 | inactive: 0 | inactive: 0 | inactive: 0 | inactive: 0 | inactive: 0 | inactive: 0 |

Part of the list above in a different format:
Structure (SMILES) | kinase-Nluc reporter destabilization hit call [1] | kinase-Nluc reporter destabilization hit call [2] | kinase-Nluc reporter destabilization hit call [3] | kinase-Nluc reporter destabilization hit call [4] | kinase-Nluc reporter destabilization hit call [5] | kinase-Nluc reporter destabilization hit call [6] | kinase-Nluc reporter destabilization hit call [7] | kinase-Nluc reporter destabilization hit call [8] | kinase-Nluc reporter destabilization hit call [9] | kinase-Nluc reporter destabilization hit call [10] | kinase-Nluc reporter destabilization hit call [11] | kinase-Nluc reporter destabilization hit call [12] | kinase-Nluc reporter destabilization hit call [13] | kinase-Nluc reporter destabilization hit call [14] | kinase-Nluc reporter destabilization hit call [15] | kinase-Nluc reporter destabilization hit call [16] | kinase-Nluc reporter destabilization hit call [17] | kinase-Nluc reporter destabilization hit call [18] | kinase-Nluc reporter destabilization hit call [19] | kinase-Nluc reporter destabilization hit call [20]
O=c1[nH]c2ccccc2n1C1CCN(CCCC(c2ccc(F)cc2)c2ccc(F)cc2)CC1 [Pimozide] (2.5 µM) | inactive: 0 | inactive: 0 | inactive: 0 | inactive: 0 | inactive: 0 | inactive: 0 | inactive: 0 | inactive: 0 | inactive: 0 | inactive: 0 | inactive: 0 | inactive: 0 | inactive: 0 | inactive: 0 | inactive: 0 | inactive: 0 | inactive: 0 | inactive: 0 | inactive: 0 | inactive: 0
COc1cc2c(cc1F)C(c1ccccc1Cl)=Nc1c(n[nH]c1C)N2 (0.5 µM) | inactive: 0 | inactive: 0 | inactive: 0 | inactive: 0 | inactive: 0 | inactive: 0 | inactive: 0 | inactive: 0 | inactive: 0 | inactive: 0 | inactive: 0 | inactive: 0 | inactive: 0 | inactive: 0 | inactive: 0 | inactive: 0 | inactive: 0 | inactive: 0 | inactive: 0 | inactive: 0
